Results: paper PMC12040988, “GET3B is involved in chloroplast biogenesis and interacts with the thylakoidal ALB3 and ALB4 insertases” (Plant Cell Reports, 2025)
Results are given in words; binding and its absence hold for the method and conditions named. Some entries that bind do so weakly or less than the wild type. For some assays here: Tags and fused reporters may be left off the sequences shown.

Chains of the proteins cited; added tags and fusions are not shown.
UniProt P40350: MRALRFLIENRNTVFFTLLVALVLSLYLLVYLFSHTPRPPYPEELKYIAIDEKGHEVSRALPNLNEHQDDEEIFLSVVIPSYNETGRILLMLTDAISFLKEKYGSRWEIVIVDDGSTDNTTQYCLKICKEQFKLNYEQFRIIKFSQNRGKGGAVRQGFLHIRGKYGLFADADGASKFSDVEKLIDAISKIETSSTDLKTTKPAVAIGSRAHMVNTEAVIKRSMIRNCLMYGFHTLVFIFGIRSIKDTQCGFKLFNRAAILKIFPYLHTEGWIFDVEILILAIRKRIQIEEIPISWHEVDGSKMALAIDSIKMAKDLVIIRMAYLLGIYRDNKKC

T1: Alb3-Cub (mature full-length Alb3 fused to the C-terminal half of ubiquitin) (Arabidopsis thaliana) (UniProt Q8LBP4)
T1 sequence: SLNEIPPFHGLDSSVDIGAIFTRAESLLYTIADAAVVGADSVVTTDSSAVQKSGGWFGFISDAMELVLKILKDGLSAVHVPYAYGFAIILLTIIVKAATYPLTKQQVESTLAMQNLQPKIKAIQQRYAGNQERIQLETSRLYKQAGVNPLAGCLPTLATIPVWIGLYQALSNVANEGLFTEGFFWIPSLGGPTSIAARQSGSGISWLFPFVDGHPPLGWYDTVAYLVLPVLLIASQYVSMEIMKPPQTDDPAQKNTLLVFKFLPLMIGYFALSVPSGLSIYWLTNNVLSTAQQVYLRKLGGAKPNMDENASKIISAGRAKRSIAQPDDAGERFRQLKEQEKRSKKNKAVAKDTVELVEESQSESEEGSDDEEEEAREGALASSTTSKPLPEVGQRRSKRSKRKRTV

T2: Alb4-Cub (mature full-length Alb4 fused to the C-terminal half of ubiquitin) (Arabidopsis thaliana) (UniProt Q9FYL3)
T2 sequence: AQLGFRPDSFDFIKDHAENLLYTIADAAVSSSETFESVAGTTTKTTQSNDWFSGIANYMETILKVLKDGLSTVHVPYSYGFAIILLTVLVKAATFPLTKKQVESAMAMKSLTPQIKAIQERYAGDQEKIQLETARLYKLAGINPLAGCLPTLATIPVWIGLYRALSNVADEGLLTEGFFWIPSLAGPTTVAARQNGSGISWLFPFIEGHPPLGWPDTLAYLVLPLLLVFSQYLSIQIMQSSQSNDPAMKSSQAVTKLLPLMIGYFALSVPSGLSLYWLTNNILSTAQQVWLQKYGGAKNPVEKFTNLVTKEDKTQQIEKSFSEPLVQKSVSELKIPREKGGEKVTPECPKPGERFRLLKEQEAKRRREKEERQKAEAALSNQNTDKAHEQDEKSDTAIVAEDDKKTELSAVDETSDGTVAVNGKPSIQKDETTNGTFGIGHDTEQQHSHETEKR

T3: SecY1-Cub (UniProt Q38885)
T3 sequence: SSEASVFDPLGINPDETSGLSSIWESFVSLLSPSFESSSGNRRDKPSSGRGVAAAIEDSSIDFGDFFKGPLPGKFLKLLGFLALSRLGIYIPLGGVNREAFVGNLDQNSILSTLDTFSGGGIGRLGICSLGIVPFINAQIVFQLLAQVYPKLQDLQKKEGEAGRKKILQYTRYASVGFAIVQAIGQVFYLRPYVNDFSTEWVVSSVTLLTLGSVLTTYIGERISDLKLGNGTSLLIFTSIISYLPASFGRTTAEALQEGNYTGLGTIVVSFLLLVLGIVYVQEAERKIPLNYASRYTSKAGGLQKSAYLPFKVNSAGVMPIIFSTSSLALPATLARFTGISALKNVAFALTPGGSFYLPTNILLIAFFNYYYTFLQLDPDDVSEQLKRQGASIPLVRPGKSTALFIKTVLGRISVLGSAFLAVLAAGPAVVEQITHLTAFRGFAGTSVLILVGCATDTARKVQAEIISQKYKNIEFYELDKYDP

B1: NubG-Get3b (domain or fragment, UniProt A1L4Y1 68-411)
chain: VASPTETISEFDEMVSGTKRKYYMLGGKGGVGKTSCAASLAVRFANNGHPTLVVSTDPAHSLSDSFAQDLTGGMLVPVEGPEAPLFALEINPEKAREEFRSASQMNGGTGVKDFMDGMGLGMLVEQLGELKLGELLDTPPPGLDEAIAISKVIQFLESPEYNMFTRIVFDTAPTGHTLRLLSLPDFLDASIGKILKLRQKITSATSAIKSVFGKEEKGPDAADKLEKLRERMVKVRELFRDTESTEFVIVTIPTVMAVSESSRLSASLKKESVPVKRLIVNQLLPPSSSDCKFCSIKRKDQMRALDMIREDSELSALTLMEAPLVDMEIRGVPALRFLGDIIWK

Key:
Assay in all cases: two-hybrid; split-ubiquitin yeast two-hybrid in DSY-1 yeast; Cub fusions as bait, NubG fusions as prey; growth on selective medium (-LTH, lacking Leu, Trp and His) against permissive medium (-LT)
[1] = target: T1, Alb3-Cub (mature full-length Alb3 fused to the C-terminal half of ubiquitin) (Arabidopsis thaliana)
[2] = target: T2, Alb4-Cub (mature full-length Alb4 fused to the C-terminal half of ubiquitin) (Arabidopsis thaliana)
SecY1-Cub = target: T3, SecY1-Cub

Molecule | binding [1] | binding [2] | binding (SecY1-Cub)
Alg5-NubG (from UniProt P40350 1-334) | no binding | no binding | 
B1 | binds | binds | no binding
